# Reference: PubChem BioAssay AID1508600 (Functional Genomics Laboratory (NCATS/FGL), 2020)
# Screen size: about 53,000 sequences; about 3,700 (7%) were called active.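 How the source made its calls: active means gene knockdowns whose robust z-score for IL-1 alpha signal is at least 2 or at most -2, so actives lie on both sides; inactive means the rest.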 The list shows a part of the results.
# Assay: Components of the Cytosolic LPS Sensing Pathway: Gene Identification via Genome-wide siRNA Screen;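 further: robust z of the log signal after scaling to non-targeting control siRNA wells of the plate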
# Conditions: RAW264.7 macrophages, IL-1a HTRF, actives lie on both sides, screened at 100 nM (by protocol), cells primed 5 h with Pam3CSK4 first
# Outline: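 Supernatant IL-1a by HTRF from RAW264.7 cells primed with Pam3CSK4 (5 hours) and transfected with LipidA (24 hour) after 48h siRNA knockdown at 100 nM; cell viability checked with CellTiter-Glo.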
row,Sequence,z-score
1,GGAAAUUAACUUCACUGCUTT against Olfr669,inactive: -0.69
2,GCUAUUGGGUAGAUUGAUATT against Baat,inactive: 0.251
3,GGAUGUGCAUAGUUUAAAATT against Atg12,inactive: 0.802
4,GGAUUUCUUUGGUGAGACUTT against Gstk1,inactive: -0.865
5,GCCCUACCCUCAUCAUAAATT against Tmem94,inactive: -1.36
6,CCCUAUUUGUCAGCGGUCUTT against Rbpms,inactive: -1.94
7,GGUAUGUUGGAAAGUCUUUTT against Fbxl12os,inactive: -0.163
8,GGUUGAUUUCCUGUUUCUGTT against Casp7,inactive: 0.107
9,GGAUUUUUCAGAUUCUAGATT against Hs6st2,inactive: 0.375
10,GGUCAUGUAUUUUCUUCUATT against Olfr576,inactive: -0.677
11,GGAGUUUUACUUUUCUCUCTT against Cldn23,inactive: 0.514
12,CCAUCUACAAACUUUGGCCTT against Sacs,inactive: 0.669
13,CCAGCUCUGUACUAAUCCUTT against Nol3,inactive: -0.893
14,CCUCAUCUCAUAUGUUCAGTT against Trim30d,inactive: 0.34
15,GGACUCUUUAGCACAAACUTT against Tlr11,inactive: -1.45
16,UACUGAUUCUGCUGGACUCTT against Olfr1474,inactive: 0.481
17,GGCUUUUAAGUUCAUCGCATT against Fam53c,inactive: 0.305
18,GGUACUACUUCCUUUGGAATT against Slc38a2,inactive: -0.861
19,CCUAAAUUUGACUGUGCCUTT against Nudt10,active: 2.13
20,GGCAAGGAUAUAAAUUCACTT against Mak,active: 2.47
21,GUCAGUAUGGAGCGAUGGGTT against Zmiz2,inactive: 0.695
22,GCAGGAGGUUUAUACAGCCTT against Spata5,inactive: -0.969
23,GCAUAACCAAGUGUGAUGCTT against Actrt2,inactive: -0.439

# Exported with bars between the fields: part of the list above.
row | Sequence | z-score
8 | GGUUGAUUUCCUGUUUCUGTT against Casp7 | inactive: 0.107
9 | GGAUUUUUCAGAUUCUAGATT against Hs6st2 | inactive: 0.375

# Additional results follow.

row,Sequence,z-score
1,GGAGAAUGCCCUGAUAUAGTT against Hyal5,inactive: 1.56
2,GGAUGAAUUUGGAGUUUCUTT against Rnf138rt1,inactive: -0.31
3,GCUGACCAUUUCCACCAGATT against B4galnt2,inactive: -0.602
4,GCCAGUCCUUCAAGUGUAUTT against Jak2,active: 4.16
5,GCACAUCAUUUUGAGUAUUTT against Spg21,inactive: 1.15
6,CGUGUGAAGCAGUUAUGAUTT against Pbx3,inactive: 1.02
7,GCGUAUUUUAUGGAUGAAATT against Nfkbiz,active: -2.42
8,GGCAGCAUUAAAACUUAAGTT against Chtop,active: 2.71
9,GGAGAGUGCUUCACAGACATT against Crlf3,inactive: 0.639
10,GGACAAGGAGUAUUAUGUGTT against Nrxn3,inactive: -0.372
11,CCACAAGCAGUGCUCUUUCTT against Cyp3a13,active: -2.08
12,GGGUAUUGACUACACCAGCTT against Tnfrsf10b,inactive: -0.409
13,GGGCUUGAAGAAUAACAGATT against Tmem45b,inactive: 0.148
14,GGGUAGGUCCAAAGCCUUCTT against Olfr902,inactive: 0.164
15,CCCAUGUACCACUUUGUCATT against Olfr430,active: -2.05
16,GGAGUACAUGGUGAUGUUGTT against Prss43,active: -2.6
17,GGAGAAGAUCACAAGAGGGTT against Slc35b1,inactive: -0.736
18,GGUAAAAACCCAGAGAUGATT against Rem2,inactive: 0.616
19,GGGUACAAAGGCUGUAGUUTT against Sec61a1,active: -2.42
20,CCUGUAAUGCACUCUCCUATT against Snw1,inactive: 0.199
21,GGCAUUUAAUCACUGGCUGTT against Ggps1,inactive: -1.01
22,GGCGAAGAAGACAGAAAAGTT against H2al1m,inactive: 0.82
23,UGGUGAAUACCAGUCUAAUTT against Tnfrsf23,inactive: 0.0551

# Individual results from the results shown:
# Under z-score, CCACAAGCAGUGCUCUUUCTT against Cyp3a13 reads active: -2.08
# Under z-score, GGAGUACAUGGUGAUGUUGTT against Prss43 reads active: -2.6

# Next part

row,Sequence,z-score
1,GGAAAUUCAGCAUGGAGCCTT against Vgll4,inactive: 0.934
2,GACAACAACUCUUGGCAGATT against Speer4d,inactive: -0.526
3,CGAUGACAGGAAAGUUCGATT against Batf3,inactive: -0.723
4,CCUUACAGGACAUAAAACATT against Serinc1,inactive: -0.825
5,GCUUUGCGCUGCCCUUAUATT against Cxcl17,inactive: 1.59
6,GGCAGAAGAGUGGUACUUUTT against Fyn,inactive: -1.63
7,GGCUAAAGGCCUUCUUUUUTT against Reep3,inactive: 0.622
8,GCCUUGACGUGCUUCAGAUTT against Golga7,inactive: 0.453
9,GAACGUGAAGGCCAAGAUCTT against Ubb,inactive: -0.124
10,GGAUAUCCCAUCUCCUGUUTT against Imp4,inactive: -1.66
11,GGGUUCUGUGUAAAUGUAUTT against Gzma,inactive: 0.203
12,CGGCAUUGUCACAGUUACGTT against Zkscan17,inactive: -0.778
13,GGUGAUUAUUUUGUCAGCCTT against Olfr1228,inactive: 1.86
14,GCUUAGCUGUUAUGUUUUUTT against Atp6ap1,inactive: 1.81
15,CGAAGAAAACCAUAAGGACTT against Bdnf,inactive: -0.876
16,GGUCAAUUGCACCUGGAACTT against Snx19,inactive: -0.749
17,GGAAUGGAGUUUGGUUUUGTT against Extl1,active: 2.67
18,UACCUUUAGCGCGCUUCCUTT against Oxt,inactive: 0.217
19,GGUCUCAUAGAGUGUUACUTT against Anapc7,active: 4.38
20,GGCAUCUGCAUUUGAUUAUTT against Cmtr2,inactive: -0.00519
21,GGCAGUUUGGUUUUUUUUGTT against Galnt7,inactive: -0.408
22,GGAAGAAGAAGAUAAAGAATT against Noc2l,inactive: 0.952
